Data taken from paper doi:10.1101/2022.03.31.486616.
No constants are given. Whether binding was seen depends on the method and setting. Binding seen in cells or lysates may run through a third protein. Here binding means that the protein was enriched with, or labelled near, the bait; the list need not be complete. Where a sequence is shown, tags or fusion partners need not be part of it.

Sequences of proteins named here, by UniProt entry; tags and fusion partners are left off.
UniProt Q9KVG7, whole entry: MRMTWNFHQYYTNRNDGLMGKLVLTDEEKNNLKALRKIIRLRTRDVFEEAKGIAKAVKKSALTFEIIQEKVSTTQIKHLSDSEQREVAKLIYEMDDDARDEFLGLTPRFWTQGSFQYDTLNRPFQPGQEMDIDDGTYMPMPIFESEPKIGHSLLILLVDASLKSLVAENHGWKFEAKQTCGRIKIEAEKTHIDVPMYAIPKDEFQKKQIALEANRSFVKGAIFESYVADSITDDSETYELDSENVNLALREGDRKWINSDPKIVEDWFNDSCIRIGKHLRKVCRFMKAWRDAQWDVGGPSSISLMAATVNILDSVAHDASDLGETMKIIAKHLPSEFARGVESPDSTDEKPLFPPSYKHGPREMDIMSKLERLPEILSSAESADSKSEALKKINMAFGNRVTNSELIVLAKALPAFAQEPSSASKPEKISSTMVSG

Target: V. cholerae cGAS (DncV) (V. cholerae) (UniProt Q9KVG7)
Test: affinity purification with mass spectrometry

B1: V. cholerae Cap2 (CD-NTase-associated protein 2), untagged (enzyme, UniProt Q9KVG6 1-584)
chain: MKQELHHTLLGCGFRYTPAKQMPKGILLDTKSRRKGYYVKEYSTKGGVFVIALVLWNDPHIQLPFAYILQQPEQYKGRLLPHINFGFCLCYVTQMEADWNSNDLKSTYQDVDEQIQLTLDNSVASVESGTSNDVELEGEFSAYWQSEEELYLLAKPSRKAQLKAHLVEAELSSGSIRREYVAACSEQSEELVKWLNQRKFDESSLQEVSITTHCISVKPNRLAGVNWPPSCLREVLSWLKLVDYSAHARTVTLLMAKRTKRHILLFDVEGQDELAVYLELNLDVIGKRYFGRNAARKRNINNEAALLGGKFVSANFKRLGVTRADRDTLLSRNQSRPDVGNLSQKRIALIGCGTIGGYLAELLLRSGAGCGENYFHLYDNDSFKPHNFARHSLTAHNFGLAKSIALANSLKEAVHIAQSIKGIDRQFPIQADVLSKYDIVIDATGRPPVSKRLAAVARTLIADIRPVLIHAFNDGNGRASKVLVDDGRCCYGCMMADPAVYRNNIDLRFEGIDLAKEKHISCGSTYTPYDAAVSHITAALAQEAVLNTLEHTLPWNYSEHMLDGSRSKKPRTLKRFSGCNICDE
- binding: binds
